No constants are given. Whether binding was seen depends on the method and setting. Binding seen in cells or lysates may run through a third protein. Some results given as binding are weak or reduced against the parent protein; the word gives no strength.
How the values were obtained:
[1] = molecular target: RPA32-pS33 (human (endogenous in U2OS)) (UniProt P15927); test: proximity ligation; hTERT-RPE CSB-KO cells expressing Myc-CSB or Myc-CSB-AAA; PLA between Myc-CSB and RPA32-pS33; HU-treated (Supplementary Figure S6A)
[2] = molecular target: RPA32-pS33 (human (endogenous in U2OS)) (UniProt P15927); test: proximity ligation; U2OS CSB-KO cells stably expressing vector, Myc-CSB or Myc-CSB-AAA; Duolink PLA between anti-Myc and RPA32-pS33; HU-treated
[3] = molecular target: RPA32-pS4/S8 (human (endogenous in U2OS)) (UniProt P15927); test: proximity ligation; U2OS cells; Duolink PLA between endogenous CSB and RPA32-pS33 or RPA32-pS4/S8; with or without 4 mM HU for 4 h; U2OS CSB-KO as control; also after siMUS81 or siSMARCAL1
[4] = molecular target: RPA32-pS33 (human (endogenous in U2OS)) (UniProt P15927); test: as above
[5] = molecular target: Myc-RPA32 (UniProt P15927); test: co-IP; HEK293 cells overexpressing both partners; IP with anti-Myc antibody; blots with anti-Myc and anti-mCherry or anti-HA; with or without 4 mM HU for 4 h
[6] = molecular target: Myc-RPA70 (UniProt P27694); test: as above

Amino acid sequences for entries named in this document (tags omitted). A change or cut given only in a name is not applied to a line headed by its entry. Chains listed by the source or under a name are the forms on record and can include a tag or linker.
UniProt P15927: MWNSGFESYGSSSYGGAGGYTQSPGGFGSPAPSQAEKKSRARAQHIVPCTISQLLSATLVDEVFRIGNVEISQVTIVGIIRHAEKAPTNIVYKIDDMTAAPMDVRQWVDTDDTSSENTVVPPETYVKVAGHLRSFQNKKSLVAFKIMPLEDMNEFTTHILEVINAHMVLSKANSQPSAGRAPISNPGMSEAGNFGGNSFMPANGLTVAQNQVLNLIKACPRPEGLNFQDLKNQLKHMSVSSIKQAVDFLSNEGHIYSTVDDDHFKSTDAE
UniProt P27694: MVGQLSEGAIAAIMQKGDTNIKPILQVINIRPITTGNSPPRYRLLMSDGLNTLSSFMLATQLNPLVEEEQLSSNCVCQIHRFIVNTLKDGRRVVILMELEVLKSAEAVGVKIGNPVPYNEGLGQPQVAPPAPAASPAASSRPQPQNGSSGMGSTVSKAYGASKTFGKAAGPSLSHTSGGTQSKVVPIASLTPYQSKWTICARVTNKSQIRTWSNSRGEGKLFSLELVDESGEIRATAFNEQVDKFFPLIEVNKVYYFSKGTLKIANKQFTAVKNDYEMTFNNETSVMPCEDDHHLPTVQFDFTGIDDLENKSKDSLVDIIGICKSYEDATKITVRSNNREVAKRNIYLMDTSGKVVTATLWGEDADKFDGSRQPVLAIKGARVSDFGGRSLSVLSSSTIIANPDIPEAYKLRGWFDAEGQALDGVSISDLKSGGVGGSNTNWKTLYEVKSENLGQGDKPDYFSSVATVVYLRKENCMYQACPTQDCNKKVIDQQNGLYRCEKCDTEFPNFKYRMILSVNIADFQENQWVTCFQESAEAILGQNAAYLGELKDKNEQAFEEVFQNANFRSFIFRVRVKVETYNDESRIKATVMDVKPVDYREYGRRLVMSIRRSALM
mCherry-LacR-CSB full length carrying R176Q177K178-AAA mutations (Q03468-1, form named): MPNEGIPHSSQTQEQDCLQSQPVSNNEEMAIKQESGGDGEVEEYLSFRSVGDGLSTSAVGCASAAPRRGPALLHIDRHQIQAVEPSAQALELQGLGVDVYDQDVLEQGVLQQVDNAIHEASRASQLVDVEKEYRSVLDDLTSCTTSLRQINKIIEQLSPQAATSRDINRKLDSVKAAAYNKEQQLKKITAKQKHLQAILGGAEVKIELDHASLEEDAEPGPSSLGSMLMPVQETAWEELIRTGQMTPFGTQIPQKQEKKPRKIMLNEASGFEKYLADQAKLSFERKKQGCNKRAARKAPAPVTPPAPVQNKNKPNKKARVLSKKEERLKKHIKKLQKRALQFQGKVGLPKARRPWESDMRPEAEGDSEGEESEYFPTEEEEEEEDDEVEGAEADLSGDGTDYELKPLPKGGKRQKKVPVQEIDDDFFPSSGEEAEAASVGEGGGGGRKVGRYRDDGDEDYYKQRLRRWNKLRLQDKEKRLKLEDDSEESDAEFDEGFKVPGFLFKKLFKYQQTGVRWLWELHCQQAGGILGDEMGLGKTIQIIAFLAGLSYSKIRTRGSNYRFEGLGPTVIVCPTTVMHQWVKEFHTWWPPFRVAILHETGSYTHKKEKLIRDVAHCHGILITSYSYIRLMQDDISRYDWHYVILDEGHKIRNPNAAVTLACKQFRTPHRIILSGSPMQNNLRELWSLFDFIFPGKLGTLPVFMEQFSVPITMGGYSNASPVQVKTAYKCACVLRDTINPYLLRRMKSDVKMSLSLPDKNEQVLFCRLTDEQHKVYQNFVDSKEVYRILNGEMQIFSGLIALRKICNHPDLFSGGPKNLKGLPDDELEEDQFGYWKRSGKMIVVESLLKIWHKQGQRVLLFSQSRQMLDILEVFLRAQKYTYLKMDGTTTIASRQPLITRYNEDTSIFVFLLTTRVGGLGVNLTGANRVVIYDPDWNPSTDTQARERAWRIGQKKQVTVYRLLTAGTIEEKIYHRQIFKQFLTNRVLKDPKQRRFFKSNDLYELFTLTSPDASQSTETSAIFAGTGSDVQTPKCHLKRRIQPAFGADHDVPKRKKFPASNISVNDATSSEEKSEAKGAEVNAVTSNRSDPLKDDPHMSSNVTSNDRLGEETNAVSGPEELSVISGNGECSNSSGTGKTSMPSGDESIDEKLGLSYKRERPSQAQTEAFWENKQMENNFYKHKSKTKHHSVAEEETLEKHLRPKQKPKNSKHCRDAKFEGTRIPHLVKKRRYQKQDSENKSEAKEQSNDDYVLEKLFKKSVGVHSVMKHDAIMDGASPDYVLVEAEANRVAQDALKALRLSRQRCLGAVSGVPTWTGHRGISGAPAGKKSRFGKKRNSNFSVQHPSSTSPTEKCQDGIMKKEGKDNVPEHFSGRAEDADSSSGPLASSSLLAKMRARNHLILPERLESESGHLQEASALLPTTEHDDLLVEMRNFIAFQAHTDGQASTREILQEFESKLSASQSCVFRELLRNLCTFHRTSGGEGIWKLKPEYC

binding [1] | binding [2] | Substance | also measured
binds | binds | Myc-CSB-R176Q177K178-AAA (from UniProt Q03468-1 1-1493) | –
binds | binds | Myc-tagged wild type CSB (from UniProt Q03468-1 1-1493) | –
– | – | endogenous CSB (from UniProt Q03468-1 1-1493) | binding [3]: binds; binding [4]: binds
– | – | mCherry-LacR-CSB full length (from UniProt Q03468-1 1-1493) | binding [5]: binds
– | – | mCherry-LacR-CSB full length carrying R176Q177K178-AAA mutations (from UniProt Q03468-1 1-1493) | binding [6]: binds
